Test [1] concerns the target T1, endogenous FoxM1B protein of mouse liver and mouse embryo fibroblasts (mouse) (UniProt O08696).
T1 sequence (looked up): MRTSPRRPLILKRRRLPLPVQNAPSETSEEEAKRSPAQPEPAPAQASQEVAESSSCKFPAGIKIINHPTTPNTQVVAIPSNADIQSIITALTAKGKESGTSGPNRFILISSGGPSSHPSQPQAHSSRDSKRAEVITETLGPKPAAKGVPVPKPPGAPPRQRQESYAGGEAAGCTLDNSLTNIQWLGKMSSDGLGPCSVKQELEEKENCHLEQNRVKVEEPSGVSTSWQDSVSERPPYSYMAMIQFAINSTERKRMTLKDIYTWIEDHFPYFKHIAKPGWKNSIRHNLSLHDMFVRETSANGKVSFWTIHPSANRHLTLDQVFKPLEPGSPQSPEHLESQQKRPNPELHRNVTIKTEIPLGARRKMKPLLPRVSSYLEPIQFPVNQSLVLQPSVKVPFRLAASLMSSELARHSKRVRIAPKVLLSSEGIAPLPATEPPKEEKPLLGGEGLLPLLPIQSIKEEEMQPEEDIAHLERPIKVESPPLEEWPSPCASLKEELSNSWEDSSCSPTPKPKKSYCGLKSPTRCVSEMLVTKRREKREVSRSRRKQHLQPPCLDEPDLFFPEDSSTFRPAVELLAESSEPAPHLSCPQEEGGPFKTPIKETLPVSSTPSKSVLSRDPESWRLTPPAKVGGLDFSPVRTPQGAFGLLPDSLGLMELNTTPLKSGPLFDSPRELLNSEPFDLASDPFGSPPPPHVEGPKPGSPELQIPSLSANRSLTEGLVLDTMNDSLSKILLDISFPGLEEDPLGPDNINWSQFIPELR
The experiment in a line: Co-IP of liver or MEF extracts with p19ARF antibody, Western blot with mouse FoxM1B antibody. For orientation: Immunoblotting shows a protein as a band on a membrane.

Amino acid sequences for entries named in this document (tags omitted).
UniProt P06493: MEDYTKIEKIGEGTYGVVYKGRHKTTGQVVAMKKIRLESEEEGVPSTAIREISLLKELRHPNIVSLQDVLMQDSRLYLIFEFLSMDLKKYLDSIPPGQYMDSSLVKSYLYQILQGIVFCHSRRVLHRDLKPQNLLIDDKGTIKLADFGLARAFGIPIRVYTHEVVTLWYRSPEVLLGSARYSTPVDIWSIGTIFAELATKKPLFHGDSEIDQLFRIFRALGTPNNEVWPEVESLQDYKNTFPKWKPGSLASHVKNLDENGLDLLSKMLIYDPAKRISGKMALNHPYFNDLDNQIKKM

The target of the next test is Cdk1 protein (UniProt P06493). The experiment in a line: Co-IP from transfected U2OS extracts with Cdk1 antibody, Western blot with T7 tag antibody.

Substitutions are numbered along the chain they refer to. Numbers in names are those of the source. These are yes or no findings as the source states them, for the method shown. Binding seen in cells or lysates may run through a third protein. Some binding calls cover weakened binding; strength is not graded here.

The text below walks through data of US20050032692A1.

B1: endogenous p19^ARF tumor suppressor protein of mouse liver and mouse embryo fibroblasts (protein, UniProt Q64364 1-169, looked up)
chain: MGRRFLVTVRIQRAGRPLQERVFLVKFVRSRRPRTASCALAFVNMLLRLERILRRGPHRNPGPGDDDGQRSRSSSSAQLRCRFELRGPHYLLPPGARRSAGRLPGHAGGAARVRGSAGCARCLGSPAARLGPRAGTSRHRAIFAFRWVLFVFRWVVFVYRWERRPDRRA
Turning to B1, the binding entry in test [1] is “binds”.

B2: T7-FoxM1B T585A mutant protein (protein, not shown: small tags and cut ends)
chain: MKTSPRRPLILKRRRLPLPVQNAPSETSEEEPKRSPAQQESNQAEASKEVAESNSCKFPAGIKIINHPTMPNTQVVAIPNNANIHSIITALTAKGKESGSSGPNKFILISCGGAPTQPPGLRPQTQTSYDAKRTEVTLETLGPKPAARDVNLPRPPGALCEQKRETCADGEAAGCTINNSLSNIQWLRKMSSDGLGSRSIKQEMEEKENCHLEQRQVKVEEPSRPSASWQNSVSERPPYSYMAMIQFAINSTERKRMTLKDIYTWIEDHFPYFKHIAKPGWKNSIRHNLSLHDMFVRETSANGKVSFWTIHPSANRYLTLDQVFKQQKRPNPELRRNMTIKTELPLGARRKMKPLLPRVSSYLVPIQFPVNQSLVLQPSVKVPLPLAASLMSSELARHSKRVRIAPKVLLAEEGIAPLSSAGPGKEEKLLFGEGFSPLLPVQTIKEEEIQPGEEMPHLARPIKVESPPLEEWPSPAPSFKEESSHSWEDSSQSPTPRPKKSYSGLRSPTRCVSEMLVIQHRERRERSRSRRKQHLLPPCVDEPELLFSEGPSTSRWAAELPFPADSSDPASQLSYSQEVGGPFKAPIKETLPISSTPSKSVLPRTPESWRLTPPAKVGGLDFSPVQTSQGASDPLPDPLGLMDLSTTPLQSAPPLESPQRLLSSEPLDLISVPFGNSSPSDIDVPKPGSPEPQVSGLAANRSLTEGLVLDTMNDSLSKILLDISFPGLDEDPLGPDNINWSQFIPELQ
Turning to B2, the binding result in the test with Cdk1 protein is “binds”.

B3: T7-FoxM1B T596A mutant protein (protein, not shown: small tags and cut ends)
chain: B2 chain with A585T, T596A
As to B3, the binding entry with Cdk1 protein is reported as “binds”.

B4: T7-FoxM1B S657A mutant protein (protein, not shown: small tags and cut ends)
chain: B2 chain with A585T, S657A
On to B4, for which the binding result with Cdk1 protein was “binds”.
